# Source: PubChem BioAssay (NCATS)
# Amino acid sequences for entries named in this document (tags omitted). A change or cut given only in a name is not applied to a line headed by its entry.
# UniProt P27695, whole entry, looked up: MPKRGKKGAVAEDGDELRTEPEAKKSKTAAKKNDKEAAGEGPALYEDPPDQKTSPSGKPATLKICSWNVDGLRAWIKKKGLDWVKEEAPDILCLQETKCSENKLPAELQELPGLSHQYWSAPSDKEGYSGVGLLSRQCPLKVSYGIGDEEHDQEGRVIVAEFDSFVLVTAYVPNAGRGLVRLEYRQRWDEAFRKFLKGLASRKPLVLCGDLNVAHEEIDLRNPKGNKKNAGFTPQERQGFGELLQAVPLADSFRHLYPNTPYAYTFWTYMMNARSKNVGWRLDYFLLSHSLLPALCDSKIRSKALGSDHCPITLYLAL
# UniProt Q9NUW8, whole entry, looked up: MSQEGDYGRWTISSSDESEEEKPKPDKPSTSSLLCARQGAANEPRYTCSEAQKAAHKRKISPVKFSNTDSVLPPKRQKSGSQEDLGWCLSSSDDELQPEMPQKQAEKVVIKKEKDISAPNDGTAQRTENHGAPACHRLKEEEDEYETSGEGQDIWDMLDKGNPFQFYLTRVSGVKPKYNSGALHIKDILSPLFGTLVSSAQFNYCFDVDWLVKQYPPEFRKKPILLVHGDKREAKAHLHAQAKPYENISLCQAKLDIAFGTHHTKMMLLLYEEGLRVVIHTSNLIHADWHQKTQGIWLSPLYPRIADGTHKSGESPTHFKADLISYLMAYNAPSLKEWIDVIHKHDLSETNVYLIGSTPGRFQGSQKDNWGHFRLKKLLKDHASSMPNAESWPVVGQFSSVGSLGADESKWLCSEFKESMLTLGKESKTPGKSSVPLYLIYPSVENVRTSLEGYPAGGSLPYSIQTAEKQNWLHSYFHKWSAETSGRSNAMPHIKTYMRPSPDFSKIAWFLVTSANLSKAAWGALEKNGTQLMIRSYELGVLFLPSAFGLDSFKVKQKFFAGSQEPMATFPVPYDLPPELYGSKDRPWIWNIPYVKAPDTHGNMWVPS
# UniProt Q9Y253: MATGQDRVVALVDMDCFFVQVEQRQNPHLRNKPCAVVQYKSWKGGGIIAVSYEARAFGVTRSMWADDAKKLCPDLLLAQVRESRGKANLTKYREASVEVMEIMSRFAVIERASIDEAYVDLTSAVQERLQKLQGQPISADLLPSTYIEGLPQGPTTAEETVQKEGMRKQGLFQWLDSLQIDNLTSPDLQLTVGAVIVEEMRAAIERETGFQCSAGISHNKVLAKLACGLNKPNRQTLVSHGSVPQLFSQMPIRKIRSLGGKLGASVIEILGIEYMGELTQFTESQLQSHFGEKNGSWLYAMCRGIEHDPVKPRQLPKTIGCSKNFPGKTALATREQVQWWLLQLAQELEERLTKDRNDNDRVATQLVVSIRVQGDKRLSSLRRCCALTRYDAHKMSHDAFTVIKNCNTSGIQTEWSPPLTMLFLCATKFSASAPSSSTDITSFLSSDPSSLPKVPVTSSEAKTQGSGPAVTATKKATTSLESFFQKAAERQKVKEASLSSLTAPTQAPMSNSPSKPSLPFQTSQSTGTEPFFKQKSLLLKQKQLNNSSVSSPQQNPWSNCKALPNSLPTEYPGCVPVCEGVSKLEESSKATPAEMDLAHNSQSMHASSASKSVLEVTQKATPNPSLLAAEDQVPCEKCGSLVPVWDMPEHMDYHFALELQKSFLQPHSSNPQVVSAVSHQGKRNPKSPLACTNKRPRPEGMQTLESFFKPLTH
# This list was built around the results that the source calls inconclusive (neither active nor inactive); the mix of calls is not that of the screen. For part of these data: Where the call is inconclusive, the potency comes from a doubtful curve fit. The source made the active and inactive calls. Calls follow the shape of the dose curve; as a rule, active = well fitted curve in the direction sought with a large enough effect; inconclusive = small, poorly fitted or top-dose-only effect, or another doubt; inactive = no such curve, though single readings can be large; an effect the other way counts as inactive or inconclusive.
# Columns and labels:
# [1] = Counterscreen for APE1 Inhibitors: Fluorescent Dye Displacement Assay (AID 2564);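 also: loss of thiazole orange fluorescence as the dye is displaced from duplex DNA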
# Summary of the method: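 Thiazole Orange (250 nM) bound to 50 nM TAMRA-labelled dsDNA with tetrahydrofuran abasic site; displacement by DNA-binding compounds lowers fluorescence. Buffer 50 mM Tris-HCl pH 7.5, 50 mM NaCl, 2 mM MgCl2, 0.01% Tween-20; endpoint read at 480/540 nm.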
# [2] = target: DNA repair nuclease/redox regulator APEX1 (Homo sapiens) (UniProt P27695); assay: Confirmation qHTS Assay for Inhibitors of the Human Apurinic/apyrimidinic Endonuclease 1 (APE1) (AID 2572); also: nearly all actives have a fitted effect of over 30% in size
# Summary of the method: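 No-enzyme wells served as negative control, enzyme-only wells as full activity. APE1 with compound for 15 min RT; 50 nM final fluorophore/quencher abasic duplex started the reaction; read 3 minus read 1 at 525/598 nm.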
# [3] = target: Endonuclease 4 (Escherichia coli (strain K12)) (UniProt P0A6C1); assay: Counterscreen for APE1 Inhibitors: qHTS Assay for Inhibitors of Endonuclease IV (AID 2565)
# Summary of the method: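 Concentration-response counterscreen run identically to the APE1 assay: 15 min room-temperature preincubation of 2 nM enzyme with compound, reaction started with 50 nM quenched abasic DNA, progress taken from kinetic fluorescence.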
# [4] = target: Tyrosyl-DNA phosphodiesterase 1 (Homo sapiens) (UniProt Q9NUW8); assay: Confirmation Assay for Inhibitors of Tyrosyl-DNA Phosphodiesterase (TDP1) (AID 489007); details: recombinant human TDP1 enzymatic activity, dose-response; also: nearly all actives have a fitted effect of over 40% in size
# Summary of the method: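 Recombinant human Tdp1 (1 nM final), expressed in E. coli, preincubated 15 min with compound. Then 15 nM 5'-biotin/3'-phosphotyrosine-FITC DNA substrate added for 5 min at room temperature. AlphaScreen beads (10 ug/ml) added for 10 min; cleavage gives signal loss.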
# [5] = target: DNA repair nuclease/redox regulator APEX1 (Homo sapiens) (UniProt P27695); assay: qHTS FP-Based Assay for Inhibitors of the Human Apurinic/apyrimidinic Endonuclease 1 (APE1) (AID 2573)
# [6] = target: DNA polymerase eta (Homo sapiens) (UniProt Q9Y253); assay: qHTS for Inhibitors of Polymerase Eta: Confirmatory Assay for Cherry-picked Compounds (AID 720502); details: Pol eta primer extension, TAMRA/BHQ fluorescence, 10 min
# Summary of the method: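 Human Pol eta at 10 nM was preincubated with compound for 15 min at room temperature. Reaction was started with TAMRA/BHQ-2-labelled primer-template substrate (50 nM final), with fluorescence read at 0 and 10 min (ex 525, em 598 nm).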
# Potency is read from the fitted curve at half-maximal effect.
compound,measurement,setting,value
NC1=NC(=O)/C(=C\c2ccco2)S1,Potency,[1],"inconclusive: 0.501 µM [inhibitor, full curve]"
same,Potency,[2],"inconclusive: 12.6 µM [inhibitor, partial curve]"
CCc1ccc(NC(=O)CSc2nc(NS(=O)(=O)c3ccccc3)cc(=O)[nH]2)cc1,Potency,[1],inactive
same,Potency,[2],inactive
Cc1ccc(NC(=O)CSc2nc(N)cc(=O)[nH]2)cc1Cl,Potency,[1],"inconclusive: 2 µM [inhibitor, full curve]"
same,Potency,[2],inactive
Cc1ncc(CO)c(/C=N/NC(=O)c2cc(O)c(O)c(O)c2)c1O,Potency,[1],inactive
same,Potency,[2],"inconclusive: 0.1 µM [inhibitor, full curve, poor fit]"
Cc1cc(C)nc(N2N=C(CSc3ccc(Cl)cc3)CC2=O)n1,Potency,[1],inactive
same,Potency,[2],"inconclusive: 6.31 µM [inhibitor, partial curve, poor fit]"
CC(=O)c1ccc(NC(=O)c2ccc3nc(-c4ccco4)c(-c4ccco4)nc3c2)cc1,Potency,[1],active: 8.91 µM
same,Potency,[3],"inconclusive: 10 µM [inhibitor, partial curve]"
same,Potency,[4],active: 7.08 µM
COc1ccc(NS(=O)(=O)c2ccc(O)c(C(=O)OCC(=O)NC(C)C3CC4CCC3C4)c2)cc1 (stereo unspecified),Potency,[1],"inconclusive: 7.94 µM [inhibitor, partial curve]"
same,Potency,[2],"inconclusive: 10 µM [inhibitor, partial curve, poor fit]"
same,Potency,[5],"inconclusive: 4.47 µM [inhibitor, partial curve, poor fit]"
Cc1cccc(NC(=O)CSc2nnc(-c3ccco3)c(-c3ccco3)n2)c1C,Potency,[1],"inconclusive: 14.1 µM [inhibitor, single point]"
same,Potency,[2],"inconclusive: 22.4 µM [inhibitor, partial curve, poor fit]"
CN1CCc2cc3c(c4c2[C@H]1[C@H](O)c1ccccc1-4)OCO3,Potency,[1],active: 4.47 µM
same,Potency,[3],active: 8.91 µM
same,Potency,[5],active: 12.6 µM
Cc1ccc(-c2cc(-c3ccco3)c(C#N)c(=O)[nH]2)cc1,Potency,[1],inactive
same,Potency,[2],"inconclusive: 17.8 µM [inhibitor, partial curve, poor fit]"
same,Potency,[5],"inconclusive: 0.0112 µM [inhibitor, full curve, poor fit]"
O=C(CCCN1C(=O)/C(=C/c2ccco2)SC1=S)Nc1ccccc1C(=O)O,Potency,[1],inactive
same,Potency,[2],active: 12.6 µM
Oc1ccccc1Oc1c(F)c(F)nc(N2CCCC2)c1F,Potency,[1],inactive
same,Potency,[2],"inconclusive: 12.6 µM [inhibitor, partial curve, poor fit]"
NC(=O)C1CCN(C2CC(=O)NC2=O)CC1 (stereo unspecified),Potency,[1],inactive
same,Potency,[2],"inconclusive: 0.891 µM [inhibitor, partial curve, poor fit]"
CC1=N/C(=C/c2ccco2)C(=O)O1,Potency,[1],inactive
same,Potency,[2],active: 35.5 µM
O=C(CSc1nnnn1-c1ccccc1)NC(=O)NCc1ccco1,Potency,[1],"inconclusive: 22.4 µM [inhibitor, single point]"
same,Potency,[2],"inconclusive: 0.0028 µM [inhibitor, full curve, poor fit]"
same,Potency,[5],"inconclusive: 22.4 µM [inhibitor, single point]"
N#C/C(=C/c1ccc(-c2cc(C(=O)O)cc(C(=O)O)c2)o1)c1nc2ccccc2s1,Potency,[1],"inconclusive: 4.47 µM [inhibitor, partial curve, poor fit]"
same,Potency,[3],"inconclusive: 11.2 µM [inhibitor, single point]"
same,Potency,[5],inactive
CCOc1ccccc1-n1nnnc1SCC(=O)NC(=O)NCc1ccco1,Potency,[1],"inconclusive: 15.8 µM [inhibitor, single point]"
same,Potency,[2],"inconclusive: 17.8 µM [inhibitor, partial curve, poor fit]"
same,Potency,[5],"inconclusive: 4.47 µM [inhibitor, partial curve, poor fit]"
Cc1ccc(C(=O)Nc2cccc(C(F)(F)F)c2)cc1Nc1ccccn1,Potency,[1],inactive
same,Potency,[2],"inconclusive: 14.1 µM [inhibitor, partial curve, poor fit]"
O=C(Cn1c(=O)n(Cc2ccco2)c(=O)c2c3c(sc21)CCCCC3)Nc1ccccc1,Potency,[1],"inconclusive: 7.08 µM [inhibitor, partial curve, poor fit]"
same,Potency,[2],"inconclusive: 1.58 µM [inhibitor, full curve, poor fit]"
Cc1cc(NC(=O)Cc2cccs2)no1,Potency,[1],"inconclusive: 11.2 µM [inhibitor, partial curve]"
same,Potency,[3],"inconclusive: 1.12 µM [inhibitor, partial curve, poor fit]"
same,Potency,[4],"inconclusive: 12.6 µM [inhibitor, partial curve]"
same,Potency,[6],active: 19 µM
Cc1cc(N)n(-c2ccc(Oc3ccccc3)c(S(=O)(=O)O)c2)n1,Potency,[1],inactive
same,Potency,[2],"inconclusive: 2.82 µM [inhibitor, full curve]"

# Quoted at random: two entries already listed
compound,measurement,setting,value
CN1CCc2cc3c(c4c2[C@H]1[C@H](O)c1ccccc1-4)OCO3,Potency,[3],active: 8.91 µM
NC1=NC(=O)/C(=C\c2ccco2)S1,Potency,[2],"inconclusive: 12.6 µM [inhibitor, partial curve]"
